In the supplement of paper PMC8728848:
The other results are listed elsewhere or left out.

Assays:
Assay in all cases: glycan array binding signal (z-score within array); higher = stronger binding
Details in all cases: glycan notation: IUPAC condensed, linker removed
Glc(b1-6)Glc = target: Glc(b1-6)Glc
Outline: (§1)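 Arrays were curated from the Consortium for Functional Glycomics database, 3228 in total, and kept only where the protein sequence was available. Binding is expressed as a within-array Z-score. This score was averaged across arrays of the same protein sequence at different concentrations or buffers and across linkers, and negative values can be read as non-binding.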

GlcA(b1-3)Gal = target: GlcA(b1-3)Gal
Outline: as §1

GlcA(b1-3)GlcNAc = target: GlcA(b1-3)GlcNAc
Outline: as §1

GlcA(b1-6)Gal = target: GlcA(b1-6)Gal
Outline: as §1

[1] = target: GlcA3S(b1-3)Gal(b1-4)GlcNAc(b1-2)Man
Outline: as §1

[2] = target: GlcA3S(b1-3)Gal(b1-4)GlcNAc(b1-3)Gal(b1-4)Glc
Outline: as §1

[3] = target: GlcNAc(a1-3)Gal(b1-4)GlcNAc
Outline: as §1

[4] = target: GlcNAc(a1-4)Gal(b1-3)GlcNAc
Outline: as §1

[5] = target: GlcNAc(a1-4)Gal(b1-4)GalNAc
Outline: as §1

[6] = target: GlcNAc(a1-4)Gal(b1-4)GlcNAc
Outline: as §1

[7] = target: GlcNAc(a1-4)Gal(b1-4)GlcNAc(b1-3)Gal(b1-4)Glc
Outline: as §1

[8] = target: GlcNAc(a1-4)Gal(b1-4)GlcNAc(b1-3)Gal(b1-4)GlcNAc
Outline: as §1

[9] = target: GlcNAc(a1-4)Gal(b1-4)GlcNAc(b1-3)Gal(b1-4)GlcNAc(b1-3)Gal(b1-4)GlcNAc
Outline: as §1

[10] = target: GlcNAc(a1-4)Gal(b1-4)GlcNAc(b1-3)Gal(b1-4)[Fuc(a1-3)]GlcNAc(b1-3)Gal(b1-4)[Fuc(a1-3)]GlcNAc
Outline: as §1

[11] = target: GlcNAc(a1-6)Gal(b1-4)GlcNAc
Outline: as §1

[12] = target: GlcNAc(b1-2)Gal(b1-3)GalNAc
Outline: as §1

[13] = target: GlcNAc(b1-2)Man(a1-3)[GlcNAc(b1-2)Man(a1-6)]Man(b1-4)GlcNAc(b1-4)GlcNAc
Outline: as §1

[14] = target: GlcNAc(b1-2)Man(a1-3)[GlcNAc(b1-2)Man(a1-6)]Man(b1-4)GlcNAc(b1-4)[Fuc(a1-6)]GlcNAc
Outline: as §1

[15] = target: GlcNAc(b1-2)Man(a1-3)[GlcNAc(b1-4)][GlcNAc(b1-2)Man(a1-6)]Man(b1-4)GlcNAc(b1-4)GlcNAc
Outline: as §1

[16] = target: GlcNAc(b1-2)Man(a1-3)[GlcNAc(b1-4)][GlcNAc(b1-2)Man(a1-6)]Man(b1-4)GlcNAc(b1-4)[Fuc(a1-6)]GlcNAc
Outline: as §1

[17] = target: GlcNAc(b1-2)[GlcNAc(b1-4)]Man(a1-3)[GlcNAc(b1-2)Man(a1-6)]Man(b1-4)GlcNAc(b1-4)GlcNAc
Outline: as §1

[18] = target: GlcNAc(b1-2)[GlcNAc(b1-4)]Man(a1-3)[GlcNAc(b1-4)][GlcNAc(b1-2)Man(a1-6)]Man(b1-4)GlcNAc(b1-4)GlcNAc
Outline: as §1

[19] = target: GlcNAc(b1-2)[GlcNAc(b1-4)]Man(a1-3)[GlcNAc(b1-4)][GlcNAc(b1-2)[GlcNAc(b1-6)]Man(a1-6)]Man(b1-4)GlcNAc(b1-4)GlcNAc
Outline: as §1

[20] = target: GlcNAc(b1-2)[GlcNAc(b1-4)]Man(a1-3)[GlcNAc(b1-4)][GlcNAc(b1-2)[GlcNAc(b1-6)]Man(a1-6)]Man(b1-4)GlcNAc(b1-4)[Fuc(a1-6)]GlcNAc
Outline: as §1

[21] = target: GlcNAc(b1-2)[GlcNAc(b1-6)]Man(a1-6)[GlcNAc(b1-2)Man(a1-3)]Man(b1-4)GlcNAc(b1-4)GlcNAc
Outline: as §1

[22] = target: GlcNAc(b1-2)[GlcNAc(b1-6)]Man(a1-6)[GlcNAc(b1-2)Man(a1-3)]Man(b1-4)GlcNAc(b1-4)[Fuc(a1-6)]GlcNAc
Outline: as §1

[23] = target: GlcNAc(b1-2)[GlcNAc(b1-6)]Man(a1-6)[GlcNAc(b1-4)][GlcNAc(b1-2)Man(a1-3)]Man(b1-4)GlcNAc(b1-4)GlcNAc
Outline: as §1

GlcNAc(b1-3)Fuc = target: GlcNAc(b1-3)Fuc
Outline: as §1

GlcNAc(b1-3)Gal = target: GlcNAc(b1-3)Gal
Outline: as §1

[24] = target: GlcNAc(b1-3)Gal(b1-3)GalNAc
Outline: as §1

GlcNAc(b1-3)Gal(b1-4)Glc = target: GlcNAc(b1-3)Gal(b1-4)Glc
Outline: as §1

[25] = target: GlcNAc(b1-3)Gal(b1-4)GlcNAc
Outline: as §1

[26] = target: GlcNAc(b1-3)Gal(b1-4)GlcNAc(b1-2)Man(a1-3)[GlcNAc(b1-3)Gal(b1-4)GlcNAc(b1-2)Man(a1-6)]Man(b1-4)GlcNAc(b1-4)GlcNAc
Outline: as §1

[27] = target: GlcNAc(b1-3)Gal(b1-4)GlcNAc(b1-2)Man(a1-3)[GlcNAc(b1-3)Gal(b1-4)GlcNAc(b1-2)Man(a1-6)]Man(b1-4)GlcNAc(b1-4)[Fuc(a1-6)]GlcNAc
Outline: as §1

[28] = target: GlcNAc(b1-3)Gal(b1-4)GlcNAc(b1-2)[GlcNAc(b1-3)Gal(b1-4)GlcNAc(b1-6)]Man(a1-6)[GlcNAc(b1-3)Gal(b1-4)GlcNAc(b1-2)Man(a1-3)]Man(b1-4)GlcNAc(b1-4)GlcNAc
Outline: as §1

[29] = target: GlcNAc(b1-3)Gal(b1-4)GlcNAc(b1-3)Gal(b1-4)GlcNAc
Outline: as §1

[30] = target: GlcNAc(b1-3)Gal(b1-4)GlcNAc(b1-3)Gal(b1-4)GlcNAc(b1-2)Man(a1-3)[GlcNAc(b1-3)Gal(b1-4)GlcNAc(b1-3)Gal(b1-4)GlcNAc(b1-2)Man(a1-6)]Man(b1-4)GlcNAc(b1-4)GlcNAc
Outline: as §1

[31] = target: GlcNAc(b1-3)Gal(b1-4)GlcNAc(b1-3)Gal(b1-4)GlcNAc(b1-2)Man(a1-3)[GlcNAc(b1-3)Gal(b1-4)GlcNAc(b1-3)Gal(b1-4)GlcNAc(b1-2)Man(a1-6)]Man(b1-4)GlcNAc(b1-4)[Fuc(a1-6)]GlcNAc
Outline: as §1

[32] = target: GlcNAc(b1-3)Gal(b1-4)GlcNAc(b1-3)Gal(b1-4)GlcNAc(b1-2)[GlcNAc(b1-3)Gal(b1-4)GlcNAc(b1-3)Gal(b1-4)GlcNAc(b1-6)]Man(a1-6)[GlcNAc(b1-3)Gal(b1-4)GlcNAc(b1-3)Gal(b1-4)GlcNAc(b1-2)Man(a1-3)]Man(b1-4)GlcNAc(b1-4)[Fuc(a1-6)]GlcNAc
Outline: as §1

[33] = target: GlcNAc(b1-3)Gal(b1-4)GlcNAc(b1-3)Gal(b1-4)GlcNAc(b1-3)Gal(b1-4)GlcNAc(b1-2)Man(a1-3)[GlcNAc(b1-3)Gal(b1-4)GlcNAc(b1-3)Gal(b1-4)GlcNAc(b1-3)Gal(b1-4)GlcNAc(b1-2)Man(a1-6)]Man(b1-4)GlcNAc(b1-4)GlcNAc
Outline: as §1

[34] = target: GlcNAc(b1-3)Gal(b1-4)GlcNAc(b1-3)Gal(b1-4)GlcNAc(b1-3)Gal(b1-4)GlcNAc(b1-2)Man(a1-3)[GlcNAc(b1-3)Gal(b1-4)GlcNAc(b1-3)Gal(b1-4)GlcNAc(b1-3)Gal(b1-4)GlcNAc(b1-2)Man(a1-6)]Man(b1-4)GlcNAc(b1-4)[Fuc(a1-6)]GlcNAc
Outline: as §1

[35] = target: GlcNAc(b1-3)Gal(b1-4)GlcNAc(b1-3)Gal(b1-4)GlcNAc(b1-3)Gal(b1-4)GlcNAc(b1-2)[GlcNAc(b1-3)Gal(b1-4)GlcNAc(b1-3)Gal(b1-4)GlcNAc(b1-3)Gal(b1-4)GlcNAc(b1-6)]Man(a1-6)[GlcNAc(b1-3)Gal(b1-4)GlcNAc(b1-3)Gal(b1-4)GlcNAc(b1-3)Gal(b1-4)GlcNAc(b1-2)Man(a1-3)]Man(b1-4)GlcNAc(b1-4)[Fuc(a1-6)]GlcNAc
Outline: as §1

[36] = target: GlcNAc(b1-3)Gal(b1-4)GlcNAc(b1-3)Gal(b1-4)GlcNAc(b1-3)Gal(b1-4)GlcNAc(b1-3)Gal(b1-4)GlcNAc(b1-2)Man(a1-3)[GlcNAc(b1-3)Gal(b1-4)GlcNAc(b1-3)Gal(b1-4)GlcNAc(b1-3)Gal(b1-4)GlcNAc(b1-3)Gal(b1-4)GlcNAc(b1-2)Man(a1-6)]Man(b1-4)GlcNAc(b1-4)GlcNAc
Outline: as §1

[37] = target: GlcNAc(b1-3)Gal(b1-4)GlcNAc(b1-3)Gal(b1-4)GlcNAc(b1-3)Gal(b1-4)GlcNAc(b1-3)Gal(b1-4)GlcNAc(b1-2)Man(a1-3)[GlcNAc(b1-3)Gal(b1-4)GlcNAc(b1-3)Gal(b1-4)GlcNAc(b1-3)Gal(b1-4)GlcNAc(b1-3)Gal(b1-4)GlcNAc(b1-2)Man(a1-6)]Man(b1-4)GlcNAc(b1-4)[Fuc(a1-6)]GlcNAc
Outline: as §1

[38] = target: GlcNAc(b1-3)Gal(b1-4)GlcNAc(b1-3)Gal(b1-4)GlcNAc(b1-3)Gal(b1-4)GlcNAc(b1-3)Gal(b1-4)GlcNAc(b1-2)[GlcNAc(b1-3)Gal(b1-4)GlcNAc(b1-3)Gal(b1-4)GlcNAc(b1-3)Gal(b1-4)GlcNAc(b1-3)Gal(b1-4)GlcNAc(b1-6)]Man(a1-6)[GlcNAc(b1-3)Gal(b1-4)GlcNAc(b1-3)Gal(b1-4)GlcNAc(b1-3)Gal(b1-4)GlcNAc(b1-3)Gal(b1-4)GlcNAc(b1-2)Man(a1-3)]Man(b1-4)GlcNAc(b1-4)[Fuc(a1-6)]GlcNAc
Outline: as §1

B1: EUL D1A first (Oryza sativa) (protein)
chain: MFGFGHHHNQAPAAPSDPNQIFKIFCRANENYCLTVRDSAVVLAPVNPKDEHQHWFKDMRFSTKVKDGEGMPAFALVNKATGLAVKHSLGQSHPVKLVPFNPEYEDASVLWTESKDVGKGFRCIRMVNNTRLNLDAFHGDKDHGGVRDGTTVVLWEWCKGDNQSWKILPWGPEAHSSSPGAATILEQKLISEEDLNSAVDHHHHHH
Glc(b1-6)Glc
  glycan array binding signal (z-score): -0.941
GlcA(b1-3)Gal
  glycan array binding signal (z-score): -0.284
GlcA(b1-3)GlcNAc
  glycan array binding signal (z-score): 0.384
GlcA(b1-6)Gal
  glycan array binding signal (z-score): 0.046
[1]
  glycan array binding signal (z-score): 0.924
[2]
  glycan array binding signal (z-score): -0.203
[3]
  glycan array binding signal (z-score): -1.65
[4]
  glycan array binding signal (z-score): -1.04
[5]
  glycan array binding signal (z-score): 1.73
[6]
  glycan array binding signal (z-score): -1.09
[7]
  glycan array binding signal (z-score): -0.65
[8]
  glycan array binding signal (z-score): -0.994
[9]
  glycan array binding signal (z-score): -0.413
[10]
  glycan array binding signal (z-score): 0.005
[11]
  glycan array binding signal (z-score): -0.988
[12]
  glycan array binding signal (z-score): -0.463
[13]
  glycan array binding signal (z-score): -0.66
[14]
  glycan array binding signal (z-score): 3.11
[15]
  glycan array binding signal (z-score): -0.869
[16]
  glycan array binding signal (z-score): -0.231
[17]
  glycan array binding signal (z-score): -1.05
[18]
  glycan array binding signal (z-score): -0.55
[19]
  glycan array binding signal (z-score): -0.605
[20]
  glycan array binding signal (z-score): 0.23
[21]
  glycan array binding signal (z-score): -0.379
[22]
  glycan array binding signal (z-score): 2.21
[23]
  glycan array binding signal (z-score): -1.08
GlcNAc(b1-3)Fuc
  glycan array binding signal (z-score): -0.954
GlcNAc(b1-3)Gal
  glycan array binding signal (z-score): -0.927
[24]
  glycan array binding signal (z-score): -0.611
GlcNAc(b1-3)Gal(b1-4)Glc
  glycan array binding signal (z-score): -0.948
[25]
  glycan array binding signal (z-score): -0.114
[26]
  glycan array binding signal (z-score): -0.253
[27]
  glycan array binding signal (z-score): 0.782
[28]
  glycan array binding signal (z-score): 1.95
[29]
  glycan array binding signal (z-score): -0.442
[30]
  glycan array binding signal (z-score): 0.506
[31]
  glycan array binding signal (z-score): -0.261
[32]
  glycan array binding signal (z-score): 1.9
[33]
  glycan array binding signal (z-score): 0.435
[34]
  glycan array binding signal (z-score): 1.86
[35]
  glycan array binding signal (z-score): 0.304
[36]
  glycan array binding signal (z-score): -0.25
[37]
  glycan array binding signal (z-score): 2.06
[38]
  glycan array binding signal (z-score): 1.55
